Experimental data reported in paper PMC8973939.
Results are given in words; binding and its absence hold for the method and conditions named. In cells and extracts the contact can be indirect. Some results given as binding are weak or reduced against the parent protein; the word gives no strength.

Chains of the proteins cited; added tags and fusions are not shown.
UniProt O75365: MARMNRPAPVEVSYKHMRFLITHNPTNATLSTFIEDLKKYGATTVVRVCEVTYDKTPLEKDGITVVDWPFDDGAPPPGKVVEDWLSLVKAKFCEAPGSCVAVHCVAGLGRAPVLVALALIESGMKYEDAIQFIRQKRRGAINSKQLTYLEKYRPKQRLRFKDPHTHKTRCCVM
UniProt Q13509: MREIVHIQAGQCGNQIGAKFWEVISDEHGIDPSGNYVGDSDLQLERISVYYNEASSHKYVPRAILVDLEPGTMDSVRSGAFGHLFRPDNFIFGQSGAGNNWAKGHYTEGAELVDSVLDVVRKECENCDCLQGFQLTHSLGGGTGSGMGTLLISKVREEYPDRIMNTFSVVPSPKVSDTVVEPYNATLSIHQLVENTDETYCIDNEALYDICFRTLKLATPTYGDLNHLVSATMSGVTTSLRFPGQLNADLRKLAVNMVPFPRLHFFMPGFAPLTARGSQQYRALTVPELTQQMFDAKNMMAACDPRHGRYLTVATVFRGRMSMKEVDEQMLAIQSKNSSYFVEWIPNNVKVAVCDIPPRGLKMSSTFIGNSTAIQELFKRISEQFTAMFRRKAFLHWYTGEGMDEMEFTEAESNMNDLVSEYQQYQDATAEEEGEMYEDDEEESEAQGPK

Experiments:
[1] = biological target: recombinant protein GST-PRL-3 (phosphatase of regenerating liver-3) (UniProt O75365); assay: pull-down; purified GST-PRL-3 (or GST) on agarose beads incubated with U251MG cell lysate overnight at 4°C; washed 5-8 times with RIPA buffer; SDS-PAGE, bands analysed by mass spectrometry, β3-tubulin detected by Western blot; only the target purified
[2] = biological target: Class III β-tubulin (β3-tubulin) (human (endogenous in U251MG)) (UniProt Q13509); assay: co-IP; U251MG cell lysate, precleared with Protein A/G beads; 1 μg β3-tubulin antibody (control: IgG of the same type), overnight at 4°C; beads washed 3 times with PBS pH 7.4; PRL-3 detected by Western blot

binding [1] | binding [2] | Substance
binds |  | Class III β-tubulin (β3-tubulin) (from UniProt Q13509 1-450)
 | binds | PRL-3 (phosphatase of regenerating liver-3), endogenous (from UniProt O75365 1-173) (enzyme)
